Measurements published in the supplement of paper PMC2577665.
± gives the standard deviation of the averaged measurements. The data scatter; read single values as rough.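 In each well, ERalpha-negative HeLa cells were transfected with ERalpha, a reporter bearing two estrogen response elements, and one overexpressed, poorly characterized human cDNA. Genes reducing signal to the BRCA1 positive control level (roughly 0.6 of empty vector) or below were scored as repressor hits.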

tested on: ERE-luciferase reporter with exogenous ERalpha in HeLa cells; test: relative ERE luciferase activity (Firefly/Renilla) upon cDNA overexpression, relative to empty vector (fold of empty vector); higher = stronger ERalpha transactivation (less repression); conditions: 17beta-estradiol: 10 nM; 12 h

Sequence	relative ERE luciferase activity
MMCTAKKCGIRFQPPAIILIYESEIKGKIRQRIMPVRNFSKFSDCTRAAEQLKNNPRHKSYLEQVSLRQLEKLFSFLRGYLSGQSLAETMEQIQRETTIDPEEDLNKLDDKELAKRKSIMDELFEKNQKKKDDPNFVYDIEVEFPQDDQLQSCGWDTESADEF [C3orf34]	1.05
MMRREDEEEEGTMMKAKGDLEMKEEEEISETGELVGPFVSAMPTPMPHNKGTRFSEAWEYFHLAPARAGHHPNQYATCRLCGRQVSRGPGVNVGTTALWKHLKSMHREELEKSGHGQAGQRQDPRPHGPQLPTGIEGNWGRLLEQVGTMALWASQREKEVLRRERAVEWRERAVEKRERALEEVERAILEMKWKVRAEKEACQREKELPAAVHPFHFV [ZBED2]	1.22
MMRTQCLLGLRTFVAFAAKLWSFFIYLLRRQIRTVIQYQTVRYDILPLSPVSRNRLAQVKRKILVLDLDETLIHSHHDGVLRPTVRPGTPPDFILKVVIDKHPVRFFVHKRPHVDFFLEVVSQWYELVVFTASMEIYGSAVADKLDNSRSILKRRYYRQHCTLELGSYIKDLSVVHSDLSSIVILDNSPGAYRSHPDNAIPIKSWFSDPSDTALLNLLPMLDALRFTADVRSVLSRNLHQHRLW [DULLARD]	1.23
MNAIVALCHFCELHGPRTLFCTEVLHAPLPQGDGNEDSPGQGEQAEEEEGGIQMNSRMRAHSPAEGASVESSSPGPKKSDMCEGCRSLAAGHPGYISHDKETSIKYVSHQHPSHPQLFSIVRQACVRSLSCEVCPGREGPIFFGDEQHGFVFSHTFFIKDSLARGFQRWYSIITIMMDRIYLINSWPFLLGKVRGIIDELQGKALKVFEAEQFGCPQRAQRMNTAFTPFLHQRNGNAARSLTSLTSDDNLWACLHTSFAWLLKACGSRLTEKLLEGAPTEDTLVQMEKLADLEEESESWDNSEAEEEEKAPVLPESTEGRELTQGPAESSSLSGCGSWQPRKLPVFKSLRHMRQVLGAPSFRMLAWHVLMGNQVIWKSRDVDLVQSAFEVLRTMLPVGCVRIIPYSSQYEEAYRCNFLGLSPHVQIPPHVLSSEFAVIVEVHAAARSTLHPVGCEDDQSLSKYEFVVTSGSPVAADRVGPTILNKIEAALTNQNLSVDVVDQCLVCLKEEWMNKVKVLFKFTKVDSRPKEDTQKLLSILGASEEDNVKLLKFWMTGLSKTYKSHLMSTVRSPTASESRN [FLCN]	1.16 ± 0.2
MNALLEQKEQQERLREAAALGDIREVQKLVESGVDVNSQNEVNGWTCLHWACKRNHGQVVSYLLKSGADKEILTTKGEMPVQLTSRREIRKIMGVEEEDDDDDDDDNLPQLKKESELPFVPNYLANPAFPFIYTPTAEDSAQMQNGGPSTPPASPPADGSPPLLPPGEPPLLGTFPRDHTSLALVQNGDVSAPSAILRTPESTKPGPVCQPPVSQSRSLFSSVPSKPPMSLEPQNGTYAGPAPAFQPFFFTGAFPFNMQELVLKVRIQNPSLRENDFIEIELDRQELTYQELLRVCCCELGVNPDQVEKIRKLPNTLLRKDKDVARLQDFQELELVLMISENNFLFRNAASTLTERPCYNRRASKLTY [ANKRD40]	1.04
MNEKSCSFHSKEELRDGQGERLSAGYSPSYDKDKSVLAFRGIPISELKNHGILQALTTEAYEWEPRVVSTEVVRAQEEWEAVDTIQPETGSQASSEQPGQLISFSEALQHFQTVDLSPFKKRIQPTIRRTGLAALRHYLFGPPKLHQRLREERDLVLTIAQCGLDSQDPVHGRVLQTIYKKLTGSKFDCALHGNHWEDLGFQGANPATDLRGAGFLALLHLLYLVMDSKTLPMAQEIFRLSRHHIQQFPFCLMSVNITHIAIQALREECLSRECNRQQKVIPVVNSFYAATFLHLAHVWRTQRKTISDSGFVLKELEVLAKKSPRRLLKTLELYLARVSKGQASLLGAQKCYGPEAPPFKDLTFTGESDLQSHSSEGVWLI [RBED1]	1.07 ± 0.044
MNKRDYMNTSVQEPPLDYSFRSIHVIQDLVNEEPRTGLRPLKRSKSGKSLTQSLWLNNNVLNDLRDFNQVASQLLEHPENLAWIDLSFNDLTSIDPVLTTFFNLSVLYLHGNSIQRLGEVNKLAVLPRLRSLTLHGNPMEEEKGYRQYVLCTLSRITTFDFSGVTKADRTTAEVWKRMNIKPKKAWTKQNTL [LRRC51]	1.11
MNRKKLQKLTDTLTKNCKHFNKFEVNCLIKLFYDLVGGVERQGLVVGLDRNAFRNILHVTFGMTDDMIMDRVFRGFDKDNDGCVNVLEWIHGLSLFLRGSLEEKMKYCFEVFDLNGDGFISKEEMFHMLKNSLLKQPSEEDPDEGIKDLVEITLKKMDHDHDGKLSFADYELAVREETLLLEAFGPCLPDPKSQMEFEAQVFKDPNEFNDM [EFCAB1]	0.364
MNSLSEANTKFMFDLFQQFRKSKENNIFYSPISITSALGMVLLGAKDNTAQQIKKVLHFDQVTENTTGKAATYHVDRSGNVHHQFQKLLTEFNKSTDAYELKIANKLFGEKTYLFLQEYLDAIKKFYQTSVESVDFANAPEESRKKINSWVESQTNEKIKNLIPEGNIGSNTTLVLVNAIYFKGQWEKKFNKEDTKEEKFWPNKNTYKSIQMMRQYTSFHFASLEDVQAKVLEIPYKGKDLSMIVLLPNEIDGLQKLEEKLTAEKLMEWTSLQNMRETRVDLHLPRFKVEESYDLKDTLRTMGMVDIFNGDADLSGMTGSRGLVLSGVLHKAFVEVTEEGAEAAAATAVVGFGSSPTSTNEEFHCNHPFLFFIRQNKTNSILFYGRFSSP [SERPINB3]	1.12
MNSSTSTMSEEPDALSVVNQLRDLAADPLNRRAIVQDQGCLPGLILFMDHPNPPVVHSALLALRYLAECRANREKMKGELGMMLSLQNVIQKTTTPGETKLLASEIYDILQSSNMADGDSFNEMNSRRRKAQFFLGTTNKRAKTVVLHIDGLDDTSRRNLCEEALLKIKGVISFTFQMAVQRCVVRIRSDLKAEALASAIASTKVMKAQQVVKSESGEEMLVPFQDTPVEVEQNTELPDYLPEDESPTKEQDKAVSRVGSHPEGGASWLSTAANFLSRSFYW [ARMC1]	1.12
MPARCVAAHCGNTTKSGKSLFRFPKDRAVRLLWDRFVRGCRADWYGGNDRSVICSDHFAPACFDVSSVIQKNLRFSQRLRLVAGAVPTLHRVPAPAPKRGEEGDQAGRLDTRGELQAARHSEAAPGPVSCTRPRAGKQAAASQITCENELVQTQPHADNPSNTVTSVPTHCEEGPVHKSTQISLKRPRHRSVGIQAKVKAFGKRLCNATTQTEELWSRTSSLFDIYSSDSETDTDWDIKSEQSDLSYMAVQVKEETC [THAP10]	1.23
MPEWPPCLSVAPALVITMAAGKGAPLSPSAENRWRLSEPELGRGCKPVLLEKTNRLGPEAAVGRAGRDVGSAELALLVAPGKPRPGKPLPPKTRGEQRQSAFTELPRMKDRQVDAQAQEREHDDPTGQPGAPQLTQNIPRGPAGSKVFSVWPSGARSEQRSAFSKPTKRPAERPELTSVFPAGESADALGELSGLLNTTDLACWGRLSTPKLLVGDLWNLQALPQNAPLCSTFLGAPTLWLEHTQAQVPPPSSSSTTSWALLPPTLTSLGLSTQNWCAKCNLSFRLTSDLVFHMRSHHKKEHAGPDPHSQKRREEALACPVCQEHFRERHHLSRHMTSHS [ZNF488]	1.27
MPGISARGLSHEGRKQLAVNLTRVLALYRSILDAYIIEFFTDNLWDTLPCSWQEALDGLKPPQLATMLLGMPGEGEVVRYRSVWPLTLLALKSTACALAFTRMPGFQTPSEFLENPSQSSRLTAPFRKHVRPKKQHEIRRLGELVKKLSDFTGCTQVVDVGSGQGHLSRFMALGLGLMVKSIEGDQRLVERAQRLDQELLQALEKEEKRNPQVVQTSPRHSPHHVVRWVDPTALCEELLLPLENPCQGRARLLLTGLHACGDLSVALLRHFSCCPEVVALASVGCCYMKLSDPGGYPLSQWVAGLPGYELPYRLREGACHALEEYAERLQKAGPGLRTHCYRAALETVIRRARPELRRPGVQGIPRVHELKIEEYVQRGLQRVGLDPQLPLNLAALQAHVAQENRVVAFFSLALLLAPLVETLILLDRLLYLQEQGFHAELLPIFSPELSPRNLVLVATKMPLGQALSVLETEDS [C1orf66]	1.03
MPGPATDAGKIPFCDAKEEIRAGLESSEGGGGPERPGARGQRQNIVWRNVVLMSLLHLGAVYSLVLIPKAKPLTLLWAYFCFLLAALGVTAGAHRLWSHRSYRAKLPLRIFLAVANSMAFQNDIFEWSRDHRAHHKYSETDADPHNARRGFFFSHIGWLFVRKHRDVIEKGRKLDVTDLLADPVVRIQRKYYKISVVLMCFVVPTLVPWYIWGESLWNSYFLASILRYTISLNISWLVNSAAHMYGNRPYDKHISPRQNPLVALGAIGEGFHNYHHTFPFDYSASEFGLNFNPTTWFIDFMCWLGLATDRKRATKPMIEARKARTGDSSA [SCD5]	1.13
MPGPLTCTPAWQGQGRAAAFLCCSFQRAGAVVGVPARWHRGRLSSQQRLRSSLGGSHPCPQLGRRLVREGVISVPRQQGRRRCRESFSPADVAPGPICSANICLSGVRFLTCLNRVREHVVGPSPSPAAPICFFPVVEALCTLRGRRCHCLPFPKRGMQRWMLPLRRGARLLPLASSKNPRARSPGLDPLGSSETLWSHRGGH [C9orf163]	1.13
MPGRSSSNSGSTGFISFSGVESALSSLKNFQACINSGMDTASSVALDLVESQTEVSSEYSMDKAMVEFATLDRQLNHYVKAVQSTINHVKEERPEKIPDLKLLVEKKFLALQSKNSDADFQNNEKFVQFKQQLKELKKQCGLQADREADGTEGVDEDIIVTQSQTNFTCPITKEEMKKPVKNKVCGHTYEEDAIVRMIESRQKRKKKAYCPQIGCSHTDIRKSDLIQDEALRRAIENHNKKRHRHSE [NSMCE2]	0.861
MPKYCRAPNCSNTAGRLGADNRPVSFYKFPLKDGPRLQAWLQHMGCEHWVPSCHQHLCSEHFTPSCFQWRWGVRYLRPDAVPSIFSRGPPAKSQRRTRSTQKPVSPPPPLQKNTPLPQSPAIPVSGPVRLVVLGPTSGSPKTVATMLLTPLAPAPTPERSQPEVPAQQAQTGLGPVLGALQRRVRRLQRCQERHQAQLQALERLAQQLHGESLLARARRGLQRLTTAQTLGPEESQTFTIICGGPDIAMVLAQDPAPATVDAKPELLDTRIPSA [THAP8]	1.06
MPLPDTMFCAQQIHIPPELPDILKQFTKAAIRTQPADVLRWSAGYFSALSRGDPLPVKDRMEMPTATQKTDTGLTQGLLKVLHKQCHHKRYVELTDLEQKWKNLCLPKEKFKALLQLDPCENKIKWINFLALGCSMLGGSLNTALKHLCEILTDDPEGGPARIPFKTFSYVYRYLARLDSDVSPLETESYLASLKENIDARKNGMIGLSDFFFPKRKLLESIENSEDVGH [ROPN1L]	0.832
MPTGKQLADIGYKTFSTSMMLLTVYGGYLCSVRVYHYFQWRRAQRQAAEEQKTSGIM [C12orf62]	0.939
